PubChem BioAssay AID1159578, Peter MacCallum Cancer Centre, 2015
The deposit covers about 18,000 reagents; shown is an unselected part. Of all reagents, about 1,030 (5.7%) were called active. 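Inactive calls also include pools with fewer than 3300 nuclei, whose migration was not assessed.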 Raw values are not corrected between plates.

Aim: 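siRNA pools altering how lymphatic endothelial cells close a scratch wound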 (primary screen)
Cells: human lymphatic endothelial cells
Reagent: siRNA pool against human genes, 40 nM
Duration: 48 h after transfection
Read-out: 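Cells stained with dye and imaged after a scratch; covered wound area and nuclei counted, duplicates averaged, migration set against mock wells and turned into a robust z-score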
Scale: migration robust z-score: higher = faster migration into the scratch; migration relative to mock: higher = more scratch area covered than mock; nuclei per well: higher = more cells in the well
Hit rule: 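Migration changed when robust z exceeds 2 or falls below -2 and mean nuclei number is at least 3300; otherwise not called changed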
Meaning of the calls: active = migration changed; inactive = no migration change, or too few cells

| target | migration robust z-score | migration class with cell-count check | migration relative to mock | nuclei per well, duplicate mean | Outcome |
| --- | --- | --- | --- | --- | --- |
| PRSS42P (serine protease 42, pseudogene) | -0.8 | migration z between -2 and 2; enough cells | 0.65 | 5164 | inactive |
| PRRT1 (proline rich transmembrane protein 1) | -0.66 | migration z between -2 and 2; enough cells | 0.72 | 5800 | inactive |
| M6PR (mannose-6-phosphate receptor, cation dependent) | 0.7 | migration z between -2 and 2; enough cells | 0.94 | 5724 | inactive |
| IFIT5 (interferon induced protein with tetratricopeptide repeats 5) | -1.75 | migration z between -2 and 2; enough cells | 0.43 | 3922 | inactive |
| TEKT5 (tektin 5) | -0.04 | migration z between -2 and 2; enough cells | 0.87 | 5120 | inactive |
| PNKD (PNKD metallo-beta-lactamase domain containing) | -0.94 | migration z between -2 and 2; enough cells | 0.62 | 5050 | inactive |
| PRKDC (protein kinase, DNA-activated, catalytic subunit) | 1.97 | migration z between -2 and 2; enough cells | 1.19 | 4488 | inactive |
| RNF111 (ring finger protein 111) | 0.77 | migration z between -2 and 2; enough cells | 0.96 | 6526 | inactive |
| CNEP1R1 (CTD nuclear envelope phosphatase 1 regulatory subunit 1) | 0.17 | migration z between -2 and 2; enough cells | 0.93 | 5592 | inactive |
| PGM2L1 (phosphoglucomutase 2 like 1) | 0.9 | migration z between -2 and 2; enough cells | 0.98 | 5768 | inactive |
| MTUS1 (microtubule associated scaffold protein 1) | 0.2 | migration z between -2 and 2; enough cells | 0.94 | 5652 | inactive |
| KRABD4 (KRAB domain containing 4) | -0.61 | migration z between -2 and 2; enough cells | 0.73 | 6658 | inactive |
| MECP2 (methyl-CpG binding protein 2) | -1.95 | migration z between -2 and 2; enough cells | 0.43 | 5306 | inactive |
| SPATC1 (spermatogenesis and centriole associated 1) | -0.3 | migration z between -2 and 2; enough cells | 0.81 | 5950 | inactive |
| COL4A2 (collagen type IV alpha 2 chain) | 0.52 | migration z between -2 and 2; enough cells | 1.02 | 6064 | inactive |
| CYP3A43 (cytochrome P450 family 3 subfamily A member 43) | 0.98 | migration z between -2 and 2; enough cells | 1.14 | 6024 | inactive |
| ID2 (inhibitor of DNA binding 2) | -1.01 | migration z between -2 and 2; enough cells | 0.61 | 7358 | inactive |
| PDCD2 (programmed cell death 2) | -0.26 | migration z between -2 and 2; enough cells | 0.76 | 5412 | inactive |
| TMEM45B (transmembrane protein 45B) | 0.55 | migration z between -2 and 2; enough cells | 1.02 | 7996 | inactive |
| CNBP (CCHC-type zinc finger nucleic acid binding protein) | -0.28 | migration z between -2 and 2; enough cells | 0.75 | 5190 | inactive |
| LRCH2 | -0.21 | migration z between -2 and 2; enough cells | 0.84 | 5526 | inactive |
| TAAR2 (trace amine associated receptor 2) | -0.75 | migration z between -2 and 2; enough cells | 0.66 | 6014 | inactive |
| DNAJB8 (DnaJ heat shock protein family (Hsp40) member B8) | -0.34 | migration z between -2 and 2; enough cells | 0.8 | 5964 | inactive |

Taken from above:
Result for PGM2L1 (phosphoglucomutase 2 like 1) under “nuclei per well, duplicate mean”: 5768
Result of CNBP (CCHC-type zinc finger nucleic acid binding protein) in “migration robust z-score”: -0.28
For “migration relative to mock”, LRCH2 shows 0.84

The list goes on.
| target | migration robust z-score | migration class with cell-count check | migration relative to mock | nuclei per well, duplicate mean | Outcome |
| --- | --- | --- | --- | --- | --- |
| FARSB (phenylalanyl-tRNA synthetase subunit beta) | -0.55 | migration z between -2 and 2; enough cells | 0.7 | 6076 | inactive |
| KRR1 (KRR1 small subunit processome component) | -0.08 | migration z between -2 and 2; enough cells | 0.86 | 6064 | inactive |
| TUBA1A (tubulin alpha 1a) | -0.89 | migration z between -2 and 2; enough cells | 0.64 | 5540 | inactive |
| RIMS1 (regulating synaptic membrane exocytosis 1) | -0.48 | migration z between -2 and 2; enough cells | 0.76 | 4920 | inactive |
| NDUFC1 (NADH:ubiquinone oxidoreductase subunit C1) | -1.05 | migration z between -2 and 2; enough cells | 0.61 | 5554 | inactive |
| CRISP2 (cysteine rich secretory protein 2) | 0.16 | migration z between -2 and 2; enough cells | 0.93 | 5900 | inactive |
| ZNF57 (zinc finger protein 57) | 0.86 | migration z between -2 and 2; enough cells | 1.11 | 7579 | inactive |
| FGA (fibrinogen alpha chain) | -1.82 | migration z between -2 and 2; enough cells | 0.46 | 4622 | inactive |
| DNAI7 (dynein axonemal intermediate chain 7) | -1.14 | migration z between -2 and 2; enough cells | 0.6 | 5489 | inactive |
| PCDHGA3 (protocadherin gamma subfamily A, 3) | -0.1 | migration z between -2 and 2; enough cells | 0.86 | 5795 | inactive |
| ZNF414 (zinc finger protein 414) | -0.19 | migration z between -2 and 2; enough cells | 0.84 | 5584 | inactive |
| TULP3 (TUB like protein 3) | -0.1 | migration z between -2 and 2; enough cells | 0.86 | 5525 | inactive |
| CALML6 (calmodulin like 6) | -0.2 | migration z between -2 and 2; enough cells | 0.84 | 6259 | inactive |
| ARHGEF37 (Rho guanine nucleotide exchange factor 37) | -0.32 | migration z between -2 and 2; enough cells | 0.8 | 5870 | inactive |
| ZFHX3 (zinc finger homeobox 3) | 0.13 | migration z between -2 and 2; enough cells | 0.83 | 6096 | inactive |
| CCDC102A (coiled-coil domain containing 102A) | -2.38 | migration z below -2; enough cells | 0.28 | 5148 | active |
| ZNF791 (zinc finger protein 791) | -0.86 | migration z between -2 and 2; enough cells | 0.66 | 5656 | inactive |
| ARHGAP19 (Rho GTPase activating protein 19) | 1.47 | migration z between -2 and 2; enough cells | 1.27 | 5160 | inactive |
| PCDHB7 (protocadherin beta 7) | -2.04 | migration z below -2; enough cells | 0.36 | 4554 | active |
| MRPL4 (mitochondrial ribosomal protein L4) | -1.01 | migration z between -2 and 2; enough cells | 0.62 | 4393 | inactive |
| CD34 (CD34 molecule) | -0.39 | migration z between -2 and 2; enough cells | 0.78 | 5937 | inactive |
| KCTD17 (potassium channel tetramerization domain containing 17) | -0.8 | migration z between -2 and 2; enough cells | 0.68 | 4606 | inactive |
| TTC9C (tetratricopeptide repeat domain 9C) | 1.35 | migration z between -2 and 2; enough cells | 1.23 | 6104 | inactive |
| ZNF543 (zinc finger protein 543) | -0.72 | migration z between -2 and 2; enough cells | 0.7 | 5558 | inactive |
| ZNF782 (zinc finger protein 782) | 0.78 | migration z between -2 and 2; enough cells | 1.09 | 7450 | inactive |
| ALDOA (aldolase, fructose-bisphosphate A) | -0.55 | under 3300 nuclei; migration not judged | 0.7 | 3120 | inactive |
| BMP6 (bone morphogenetic protein 6) | -0.06 | migration z between -2 and 2; enough cells | 0.87 | 7102 | inactive |
| RPGRIP1 (RPGR interacting protein 1) | -0.18 | under 3300 nuclei; migration not judged | 0.84 | 3120 | inactive |
| UGT1A10 (UDP glucuronosyltransferase family 1 member A10) | -1.77 | migration z between -2 and 2; enough cells | 0.46 | 6030 | inactive |
| FZD7 (frizzled class receptor 7) | 1.06 | migration z between -2 and 2; enough cells | 1.01 | 5027 | inactive |
| NOX3 (NADPH oxidase 3) | 0.78 | migration z between -2 and 2; enough cells | 0.96 | 6354 | inactive |
| HFM1 (helicase for meiosis 1) | 1.09 | migration z between -2 and 2; enough cells | 1.17 | 6650 | inactive |
| NKAIN4 (sodium/potassium transporting ATPase interacting 4) | -0.34 | migration z between -2 and 2; enough cells | 0.8 | 5418 | inactive |
| H1-7 (H1.7 linker histone) | 0.48 | migration z between -2 and 2; enough cells | 1.01 | 6703 | inactive |
